Assay results: patent US20070243194A1
These are yes or no findings as the source states them, for the method shown. In cells and extracts the contact can be indirect. Some binding calls cover weakened binding; strength is not graded here.

Amino acid sequences for entries named in this document (tags omitted). Residues count along the entry.
UniProt P27986, residues 2-724: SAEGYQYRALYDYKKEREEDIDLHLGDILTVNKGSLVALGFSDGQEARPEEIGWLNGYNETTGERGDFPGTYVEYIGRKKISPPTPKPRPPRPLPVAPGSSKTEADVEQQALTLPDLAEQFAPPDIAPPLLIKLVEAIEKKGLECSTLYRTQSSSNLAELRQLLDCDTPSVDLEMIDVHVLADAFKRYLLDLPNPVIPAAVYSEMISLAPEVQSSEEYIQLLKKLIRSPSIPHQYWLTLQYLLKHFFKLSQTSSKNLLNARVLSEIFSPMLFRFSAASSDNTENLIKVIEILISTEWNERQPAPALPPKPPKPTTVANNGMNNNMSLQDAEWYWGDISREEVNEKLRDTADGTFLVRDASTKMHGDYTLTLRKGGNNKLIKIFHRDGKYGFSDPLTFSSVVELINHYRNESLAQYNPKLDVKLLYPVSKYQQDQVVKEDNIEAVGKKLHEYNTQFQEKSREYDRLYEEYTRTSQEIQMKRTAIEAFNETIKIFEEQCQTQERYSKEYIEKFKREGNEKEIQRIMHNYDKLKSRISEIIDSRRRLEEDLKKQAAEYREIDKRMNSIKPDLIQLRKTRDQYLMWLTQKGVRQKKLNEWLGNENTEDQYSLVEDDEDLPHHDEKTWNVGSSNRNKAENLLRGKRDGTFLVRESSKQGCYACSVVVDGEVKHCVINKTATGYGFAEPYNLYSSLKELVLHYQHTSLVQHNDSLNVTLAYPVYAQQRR
UniProt P35568: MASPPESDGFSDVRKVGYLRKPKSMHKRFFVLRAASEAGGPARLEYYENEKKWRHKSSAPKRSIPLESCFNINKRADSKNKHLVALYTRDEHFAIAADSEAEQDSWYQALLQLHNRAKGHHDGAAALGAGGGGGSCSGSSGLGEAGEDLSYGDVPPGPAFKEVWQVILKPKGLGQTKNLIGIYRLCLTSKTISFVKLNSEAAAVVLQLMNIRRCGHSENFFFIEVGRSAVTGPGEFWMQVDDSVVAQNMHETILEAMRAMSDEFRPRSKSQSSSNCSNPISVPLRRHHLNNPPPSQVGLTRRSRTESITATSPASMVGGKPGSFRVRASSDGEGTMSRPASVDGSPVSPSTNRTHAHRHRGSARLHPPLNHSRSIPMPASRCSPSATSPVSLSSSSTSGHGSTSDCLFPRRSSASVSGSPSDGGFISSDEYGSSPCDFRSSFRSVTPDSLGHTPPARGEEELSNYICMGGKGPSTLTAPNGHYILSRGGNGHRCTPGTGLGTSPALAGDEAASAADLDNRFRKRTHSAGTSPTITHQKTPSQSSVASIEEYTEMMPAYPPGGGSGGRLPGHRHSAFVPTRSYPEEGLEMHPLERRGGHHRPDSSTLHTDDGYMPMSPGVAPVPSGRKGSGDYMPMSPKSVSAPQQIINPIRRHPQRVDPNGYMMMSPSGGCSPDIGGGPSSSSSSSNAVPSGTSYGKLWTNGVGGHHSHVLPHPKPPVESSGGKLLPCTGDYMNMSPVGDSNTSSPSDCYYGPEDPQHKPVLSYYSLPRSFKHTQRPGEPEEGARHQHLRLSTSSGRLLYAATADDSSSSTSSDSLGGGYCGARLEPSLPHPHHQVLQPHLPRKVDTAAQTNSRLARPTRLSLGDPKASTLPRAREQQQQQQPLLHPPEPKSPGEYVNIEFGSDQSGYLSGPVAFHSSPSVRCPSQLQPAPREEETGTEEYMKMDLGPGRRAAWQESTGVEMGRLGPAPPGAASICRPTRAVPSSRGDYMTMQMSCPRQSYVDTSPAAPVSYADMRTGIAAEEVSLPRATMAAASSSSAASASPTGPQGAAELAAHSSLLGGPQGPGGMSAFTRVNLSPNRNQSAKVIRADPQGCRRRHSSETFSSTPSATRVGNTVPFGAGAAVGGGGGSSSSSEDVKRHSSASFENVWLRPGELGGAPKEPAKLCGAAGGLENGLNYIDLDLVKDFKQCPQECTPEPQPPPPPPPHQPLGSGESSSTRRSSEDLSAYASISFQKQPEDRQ

Legend:
[1] = biological target: p85 regulatory subunit of PI3K (human) (UniProt P27986); test: co-immunoprecipitation with anti-p85 antibody from cell lysates, western blot for IRS-1 and p85
[2] = biological target: p85 regulatory subunit of PI3K (human) (UniProt P27986); test: co-immunoprecipitation with anti-p85, Western blot

insulin receptor substrate (IRS-1) (from UniProt P35568 1-1242)
binding [1]: binds
binding [2]: binds
